Reference: patent US20200397860A1, “SLIT AND BONE GROWTH MODULATION” (Cornell University, priority 2018, published 2020)
At least one compound was matched to its structure with a doubt left.

Tests used:
[1] = test system: murine primary calvarial osteoblasts; test: Slit3 expression by quantitative real-time PCR in murine primary osteoblasts treated with trametinib; type: cell-based, mouse; settings: indicated doses of trametinib
hMSC-derived osteoblasts = test: Slit3 expression by quantitative real-time PCR in hMSC-derived osteoblasts treated with trametinib; type: cell-based, human; settings: indicated doses of trametinib

With `CC(=O)Nc1cccc(-n2c(=O)n(C3CC3)c(=O)c3c(Nc4ccc(I)cc4F)n(C)c(=O)c(C)c32)c1` [trametinib] the Slit3 expression [1] was “reduced Slit3 expression” and the Slit3 expression (hMSC-derived osteoblasts) was “reduced Slit3 expression”.
